According to the supplement of paper PMC10849652:
The other results are listed elsewhere or left out.

Sequences of proteins named here, by UniProt entry; tags and fusion partners are left off. A change or cut given only in a name is not applied to a line headed by its entry.
UniProt P79522: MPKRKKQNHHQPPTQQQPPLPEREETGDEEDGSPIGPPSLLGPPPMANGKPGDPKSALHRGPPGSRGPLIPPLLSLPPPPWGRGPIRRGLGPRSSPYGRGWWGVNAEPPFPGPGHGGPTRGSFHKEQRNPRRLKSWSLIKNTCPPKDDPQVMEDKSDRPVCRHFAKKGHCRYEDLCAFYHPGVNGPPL
UniProt P53801: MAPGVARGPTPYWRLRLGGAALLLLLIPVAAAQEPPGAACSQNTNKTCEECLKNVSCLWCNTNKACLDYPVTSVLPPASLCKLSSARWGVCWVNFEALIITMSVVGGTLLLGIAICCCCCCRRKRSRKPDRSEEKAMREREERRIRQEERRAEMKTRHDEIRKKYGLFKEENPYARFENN
UniProt Q5THK1: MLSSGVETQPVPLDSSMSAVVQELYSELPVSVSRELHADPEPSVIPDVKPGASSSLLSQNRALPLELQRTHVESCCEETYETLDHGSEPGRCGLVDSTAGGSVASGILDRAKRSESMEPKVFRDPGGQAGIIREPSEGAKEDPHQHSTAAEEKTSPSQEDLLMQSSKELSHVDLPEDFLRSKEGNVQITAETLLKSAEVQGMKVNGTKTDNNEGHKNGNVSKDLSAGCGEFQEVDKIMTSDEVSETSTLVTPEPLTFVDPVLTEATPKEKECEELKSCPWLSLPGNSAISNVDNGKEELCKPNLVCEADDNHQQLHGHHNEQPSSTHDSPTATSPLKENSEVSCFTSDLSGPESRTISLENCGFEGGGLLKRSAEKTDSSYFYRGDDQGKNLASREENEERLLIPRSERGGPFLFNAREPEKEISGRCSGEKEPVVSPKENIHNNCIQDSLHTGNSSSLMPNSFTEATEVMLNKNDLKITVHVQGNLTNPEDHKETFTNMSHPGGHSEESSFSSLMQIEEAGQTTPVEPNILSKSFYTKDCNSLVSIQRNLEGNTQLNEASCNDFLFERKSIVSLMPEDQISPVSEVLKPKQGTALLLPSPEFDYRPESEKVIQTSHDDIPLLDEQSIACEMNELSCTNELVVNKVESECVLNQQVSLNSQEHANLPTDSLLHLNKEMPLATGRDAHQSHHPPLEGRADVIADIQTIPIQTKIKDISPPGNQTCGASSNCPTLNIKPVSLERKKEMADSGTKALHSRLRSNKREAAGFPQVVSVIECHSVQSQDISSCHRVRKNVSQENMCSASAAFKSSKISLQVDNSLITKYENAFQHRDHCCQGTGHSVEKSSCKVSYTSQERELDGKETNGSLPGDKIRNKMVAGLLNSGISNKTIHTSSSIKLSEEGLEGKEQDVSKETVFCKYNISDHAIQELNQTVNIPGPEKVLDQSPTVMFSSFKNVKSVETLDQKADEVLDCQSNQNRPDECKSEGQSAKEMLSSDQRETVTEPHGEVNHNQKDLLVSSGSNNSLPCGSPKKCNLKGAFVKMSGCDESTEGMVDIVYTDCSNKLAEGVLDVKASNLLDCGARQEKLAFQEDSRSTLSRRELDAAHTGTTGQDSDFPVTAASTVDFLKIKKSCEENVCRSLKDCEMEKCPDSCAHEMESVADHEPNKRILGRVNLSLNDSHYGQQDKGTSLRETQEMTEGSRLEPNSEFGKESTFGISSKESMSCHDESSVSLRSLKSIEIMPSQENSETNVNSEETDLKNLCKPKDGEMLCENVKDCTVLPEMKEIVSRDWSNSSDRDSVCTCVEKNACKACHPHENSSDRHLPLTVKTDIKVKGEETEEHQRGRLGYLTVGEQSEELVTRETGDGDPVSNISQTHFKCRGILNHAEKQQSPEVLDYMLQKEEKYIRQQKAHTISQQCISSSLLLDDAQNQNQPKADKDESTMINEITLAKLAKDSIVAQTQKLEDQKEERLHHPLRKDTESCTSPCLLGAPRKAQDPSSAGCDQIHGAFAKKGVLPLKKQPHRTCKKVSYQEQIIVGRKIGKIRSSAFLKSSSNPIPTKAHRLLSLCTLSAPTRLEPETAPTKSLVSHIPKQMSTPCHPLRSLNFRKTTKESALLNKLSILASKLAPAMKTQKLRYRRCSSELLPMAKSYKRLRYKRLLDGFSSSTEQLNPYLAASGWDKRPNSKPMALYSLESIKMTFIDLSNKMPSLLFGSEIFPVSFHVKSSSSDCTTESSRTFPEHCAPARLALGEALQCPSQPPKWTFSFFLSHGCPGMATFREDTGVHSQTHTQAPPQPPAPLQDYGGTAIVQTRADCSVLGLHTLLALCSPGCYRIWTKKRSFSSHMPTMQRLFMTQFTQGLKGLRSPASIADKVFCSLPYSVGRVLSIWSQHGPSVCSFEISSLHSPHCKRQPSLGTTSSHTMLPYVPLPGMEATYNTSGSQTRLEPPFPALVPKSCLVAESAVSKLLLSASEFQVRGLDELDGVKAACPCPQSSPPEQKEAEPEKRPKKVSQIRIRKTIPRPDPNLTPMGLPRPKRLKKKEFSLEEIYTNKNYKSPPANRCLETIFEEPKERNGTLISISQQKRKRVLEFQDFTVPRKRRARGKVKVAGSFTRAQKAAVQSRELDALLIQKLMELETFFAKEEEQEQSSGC
UniProt Q9Y6M0: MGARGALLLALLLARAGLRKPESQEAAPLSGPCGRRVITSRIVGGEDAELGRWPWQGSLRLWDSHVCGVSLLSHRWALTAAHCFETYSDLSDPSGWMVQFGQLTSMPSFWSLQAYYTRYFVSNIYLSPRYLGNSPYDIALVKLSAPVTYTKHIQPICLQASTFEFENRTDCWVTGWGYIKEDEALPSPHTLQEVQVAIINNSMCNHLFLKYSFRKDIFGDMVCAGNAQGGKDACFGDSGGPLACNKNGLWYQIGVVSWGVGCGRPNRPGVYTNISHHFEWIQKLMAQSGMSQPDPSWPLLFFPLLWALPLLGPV
UniProt Q15397: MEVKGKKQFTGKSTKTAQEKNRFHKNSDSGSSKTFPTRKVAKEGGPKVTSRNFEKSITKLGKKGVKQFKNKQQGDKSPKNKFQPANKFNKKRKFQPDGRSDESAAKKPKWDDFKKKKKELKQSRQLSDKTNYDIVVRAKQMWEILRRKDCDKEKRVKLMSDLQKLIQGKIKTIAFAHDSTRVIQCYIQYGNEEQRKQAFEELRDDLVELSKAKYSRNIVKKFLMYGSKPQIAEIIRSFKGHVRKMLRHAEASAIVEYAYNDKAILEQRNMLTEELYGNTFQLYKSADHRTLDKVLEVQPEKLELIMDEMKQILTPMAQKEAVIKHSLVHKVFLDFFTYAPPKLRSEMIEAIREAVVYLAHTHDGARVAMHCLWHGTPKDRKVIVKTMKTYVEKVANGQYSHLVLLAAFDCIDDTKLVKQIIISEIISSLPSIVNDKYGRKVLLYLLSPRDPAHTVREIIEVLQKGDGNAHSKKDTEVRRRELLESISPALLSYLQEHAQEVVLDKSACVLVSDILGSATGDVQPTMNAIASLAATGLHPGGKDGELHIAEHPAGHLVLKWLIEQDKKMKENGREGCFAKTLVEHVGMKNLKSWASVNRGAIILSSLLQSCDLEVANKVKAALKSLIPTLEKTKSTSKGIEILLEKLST
UniProt P20618: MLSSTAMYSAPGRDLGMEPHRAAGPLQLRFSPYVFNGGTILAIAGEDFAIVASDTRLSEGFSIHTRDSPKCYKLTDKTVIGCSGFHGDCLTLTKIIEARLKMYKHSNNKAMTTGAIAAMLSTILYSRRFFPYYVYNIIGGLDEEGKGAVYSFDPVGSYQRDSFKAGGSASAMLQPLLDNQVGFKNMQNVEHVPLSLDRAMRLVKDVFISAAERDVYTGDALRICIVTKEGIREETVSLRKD
UniProt O95456: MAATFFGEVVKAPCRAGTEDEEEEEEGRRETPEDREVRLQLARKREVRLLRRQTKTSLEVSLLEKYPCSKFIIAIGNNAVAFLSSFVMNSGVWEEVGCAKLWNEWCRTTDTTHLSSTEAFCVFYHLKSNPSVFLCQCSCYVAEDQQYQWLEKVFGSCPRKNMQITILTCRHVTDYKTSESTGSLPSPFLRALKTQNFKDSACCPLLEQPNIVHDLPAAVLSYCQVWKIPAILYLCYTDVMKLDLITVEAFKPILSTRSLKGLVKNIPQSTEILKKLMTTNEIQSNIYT

Key:
Experiment in all cases: log2 fold change, soluble protein after heating vs DMSO (PISA); higher = thermal stabilisation; K562 lysate, 10 uM; active = over 0.2 and 3.5 SD of the protein, either way, in both replicates (recomputed)
vemurafenib = compound: CCCS(=O)(=O)Nc1ccc(F)c(C(=O)c2c[nH]c3ncc(-c4ccc(Cl)cc4)cc23)c1F [vemurafenib]
How it was run: (§1)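 K562 pellets were dounce-homogenised in PBS pH 7.4 with 1 mM MgCl2, and the crude extract at 1 mg/mL protein was treated with 10 μM compound for 30 min. Aliquots were heated for 3 min across 48°C-58°C, pooled, and brought to 0.5% NP-40 at 4°C; soluble protein was the supernatant after 21,000xg for 90 min. Soluble protein was quantified by TMTpro 16plex LC-MS/MS with channel sums equalised, and reported as log2 fold change in thermal stability against DMSO controls, with values from duplicates.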

[1] = compound: CCCS(=O)(=O)Nc1ccc(F)c(C(=O)c2c[nH]c3ncc(Cl)cc23)c1F
How it was run: as §1

volasertib = compound: CC[C@@H]1C(=O)N(C)c2cnc(Nc3ccc(C(=O)N[C@H]4CC[C@H](N5CCN(CC6CC6)CC5)CC4)cc3OC)nc2N1C(C)C [volasertib]
How it was run: as §1

sotrastaurin = compound: CN1CCN(c2nc(C3=C(c4c[nH]c5ccccc45)C(=O)NC3=O)c3ccccc3n2)CC1 [sotrastaurin]
How it was run: as §1

defactinib = compound: CNC(=O)c1ccc(Nc2ncc(C(F)(F)F)c(NCc3nccnc3N(C)S(C)(=O)=O)n2)cc1 [defactinib]
How it was run: as §1

alisertib = compound: COc1cc(Nc2ncc3c(n2)-c2ccc(Cl)cc2C(c2c(F)cccc2OC)=NC3)ccc1C(=O)O [alisertib]
How it was run: as §1

[2] = compound: COc1cc2nc(-c3cc(F)ccc3O)nc(N[C@@H]3CNC[C@H]3C(C)(C)O)c2cc1OC
How it was run: as §1

gefitinib = compound: COc1cc2ncnc(Nc3ccc(F)c(Cl)c3)c2cc1OCCCN1CCOCC1 [gefitinib]
How it was run: as §1

barasertib = compound: CCN(CCCOc1ccc2c(Nc3cc(CC(=O)Nc4cccc(F)c4)[nH]n3)ncnc2c1)CCOP(=O)(O)O [barasertib]
How it was run: as §1

[3] = compound: CC[C@@H]1C(=O)N(C)c2cnc(Nc3ccc(C(=O)NC4CCN(C)CC4)cc3OC)nc2N1C1CCCC1
How it was run: as §1

[4] = compound: CCn1c(C(=O)N(C2CC2)C2CC2)cc2c3c(ncn3C)c(Nc3cc(C)n(C)n3)nc21
How it was run: as §1

[5] = compound: CCn1cc(-c2ccnc3[nH]c(-c4cccc(CN(C)C)c4)cc23)c(-c2ccc(NC(=O)N(C)C)cc2)n1
How it was run: as §1

[6] = compound: CN1CCC(CNc2ccc3ncc(-c4cccc(OC(F)(F)F)c4)n3n2)CC1
How it was run: as §1

saracatinib = compound: CN1CCN(CCOc2cc(OC3CCOCC3)c3c(Nc4c(Cl)ccc5c4OCO5)ncnc3c2)CC1 [saracatinib]
How it was run: as §1

alvocidib = compound: CN1CC[C@H](c2c(O)cc(O)c3c(=O)cc(-c4ccccc4Cl)oc23)[C@H](O)C1 [alvocidib]
How it was run: as §1

Tubastatin A = compound: CN1CCc2c(c3ccccc3n2Cc2ccc(C(=O)NO)cc2)C1 [Tubastatin A]
How it was run: as §1

[7] = compound: CNC(=O)C1=CC=CC=C1NC2=NC(=NC=C2Cl)NC3=C(C=C(C=C3)N4CCOCC4)OC
How it was run: as §1

[8] = compound: CNc1nc(-c2ccc3c(N)n[nH]c3c2)cc(N2C[C@@H](C(=O)NC3CCCCC3)CC[C@H]2C)n1
How it was run: as §1

encorafenib = compound: COC(=O)N[C@@H](C)CNc1nccc(-c2cn(C(C)C)nc2-c2cc(Cl)cc(NS(C)(=O)=O)c2F)n1 [encorafenib]
How it was run: as §1

[9] = compound: COC(=O)[C@H](CCSC)NC(=O)C1=C(C=C(C=C1)NC[C@H](CS)N)C2=CC=CC=C2
How it was run: as §1

Measured: log2 fold change

PRR3 (UniProt P79522)
inactive: vemurafenib 0.021 | [1] -0.056 | volasertib 0.113 | sotrastaurin 0.083 | defactinib -0.035 | alisertib -0.002 | [2] 0 | gefitinib 0.183

PTTG1IP (UniProt P53801)
inactive: vemurafenib 0.108 | [1] -0.005 | barasertib -0.043 | [3] 0.084 | volasertib -0.038 | [4] 0.129 | [5] -0.217 | [6] 0.344 | saracatinib -0.178 | sotrastaurin 0.221 | alvocidib -0.01 | Tubastatin A -0.006 | [7] -0.02 | defactinib -0.218 | [8] -0.029 | encorafenib -0.077 | [9] -0.237 | alisertib -0.093 | [2] 0 | gefitinib 0.323

PRR14L (UniProt Q5THK1)
inactive: vemurafenib 0.06 | barasertib 0.015 | [3] -0.019 | [4] -0.028 | [5] 0.205 | [6] -0.093 | saracatinib -0.069 | sotrastaurin -0.038 | alvocidib 0.082 | Tubastatin A 0.018 | [7] 0.007 | defactinib -0.068 | [8] 0.07 | encorafenib 0.022 | [9] -0.008 | alisertib -0.059 | gefitinib -0.084

PTPA (UniProt Q5T948)
inactive: vemurafenib 0.05 | [1] 0.001 | volasertib 0.121 | [4] 0.056 | Tubastatin A -0.247 | defactinib -0.165 | [2] 0.046

PRSS21 (UniProt Q9Y6M0)
inactive: vemurafenib 0.024 | [1] 0.042 | barasertib -0.052 | [3] -0.005 | volasertib 0.019 | [4] -0.049 | [5] -0.017 | [6] 0.032 | saracatinib -0.025 | sotrastaurin 0.026 | alvocidib -0.04 | Tubastatin A 0.063 | [7] 0.009 | defactinib 0.039 | [8] 0.038 | encorafenib 0.032 | [9] -0.008 | [2] 0.019

PUM3 (UniProt Q15397)
inactive: vemurafenib 0.04 | [1] 0.04 | barasertib 0.034 | [3] -0.022 | volasertib 0.011 | [4] -0.031 | [5] -0.014 | [6] 0.003 | saracatinib 0.011 | sotrastaurin 0.021 | alvocidib -0.012 | Tubastatin A 0.009 | [7] -0.098 | defactinib -0.005 | [8] -0.017 | encorafenib 0.038 | [9] -0.03 | alisertib -0.004 | [2] -0.007 | gefitinib -0.031

PSMB1 (UniProt P20618)
inactive: vemurafenib -0.018 | [1] 0.026 | barasertib -0.031 | [3] 0.084 | volasertib 0.016 | [4] -0.027 | [5] 0.006 | [6] 0.02 | saracatinib 0.048 | sotrastaurin -0.017 | alvocidib 0.009 | Tubastatin A 0.046 | [7] 0.011 | defactinib -0.012 | [8] 0.044 | encorafenib 0.008 | [9] -0.012 | alisertib -0.024 | [2] 0.012 | gefitinib -0.04

PSMG1 (UniProt O95456)
inactive: vemurafenib -0.024 | [1] -0.019 | barasertib -0.062 | [3] -0.017 | volasertib 0.01 | [4] -0.024 | [5] -0.012 | [6] 0.02 | saracatinib -0.017 | sotrastaurin 0.019 | alvocidib -0.013 | Tubastatin A 0.027 | [7] -0.014 | defactinib -0.021 | [8] -0.073 | encorafenib 0.03 | [9] -0.058 | alisertib 0.006 | [2] 0.036 | gefitinib 0.035
